Laboratory results as given in US9539338B2, “Polymer-based protein engineering methods to rationally tune enzyme activity, pH-dependence and stability” (Carnegie Mellon University, priority 2013, dated 2017).
At least one read-out could not be matched to a standard name with certainty.

Key:
Type in all cases: biochemical
Suc-AAPF-pNA [1] = molecular target: T1, Suc-AAPF-pNA (Bos taurus, UniProt P00766); assay: Enzyme activity: hydrolysis of Suc-AAPF-pNA at pH 5-10 (native CT, chymotrypsin-pQA conjugates); settings: 0.1 M phosphate buffer
T1 construct: purchased Sigma Aldrich; host or cells: bovine pancreas
Procedure: (§1) N-Succinyl-Ala-Ala-Pro-Phe p-nitroanilide (0 to 50 μL of 9.60 mM in DMSO) was added to sodium phosphate buffer (990 to 940 μL of 100 mM, pH 5-10). Native CT or conjugates solution (10 μL of 4.0 μM) was added to the substrate solution. The initial rate of hydrolysis of the peptide substrate was monitored by recording the increase in absorption at 412 nm using a UV-VIS spectrometer. The Michaelis-Menten parameters (kcat, KM and kcat/KM) were determined by non-linear curve fitting (using the well known Michaelis-Menten kinetics equation, V=Vmax[S]/KM+[S], kcat=Vmax[E] where [E] is enzyme concentration, [S] is substrate concentration, and V is initial rate of the reaction) of plots of initial rate versus substrate concentration using the Enzfitter software.
Enzyme activity (kcat), specificity (KM), and productivity (kcat/KM) values were determined for each of the conjugates and native chymotrypsin at 25° C. in 0.1 M phosphate buffer (pH 5-10). Values were determined by monitoring the enzyme catalyzed hydrolysis of Suc-AAPF-pNA. Enzyme concentration for each of the reactions was 39 nM, with substrate concentrations ranging from 0-700 μM. The reaction was monitored for the first 30 seconds after mixing enzyme and substrate.

Suc-AAPF-pNA [2] = molecular target: T1, Suc-AAPF-pNA; assay: Enzyme kinetic assay: hydrolysis of Suc-AAPF-pNA at pH 5-10 (native CT, CT-PDMAEMA conjugates)
Procedure: as §1, with “Km” for “KM”, “kcat/Km)” for “kcat/KM)”, “(equation for” for “(using the well known”, “parameters)” for “kinetics equation, V=Vmax[S]/KM+[S], kcat=Vmax[E] where [E] is enzyme concentration, [S] is substrate concentration, and V is initial rate of the reaction)”

NS-AAPF-pNA = molecular target: T2, NS-AAPF-pNA (Bos taurus, UniProt P00766); assay: CT and CT conjugate biocatalytic activity, 2.5 to 37.5° C.; settings: pH 8.0
T2 construct: purchased Sigma Aldrich; host or cells: bovine pancreas
Procedure: N-succinyl-L-Ala-L-Ala-L-Pro-L-Phe-p-nitroanilide was used as a substrate for enzyme bioactivity assays. In a cuvette, 0.1 M sodium phosphate buffer (2820-2970 μL, pH 8.0), substrate (0-150 μL, 6 mg/mL in DMSO (0-500 μM)), and enzyme (30 μL, 0.1 mg enzyme/mL 0.1 M pH 8.0 sodium phosphate buffer (0.04 μM)) were mixed. The rate of the hydrolysis was determined by recording the increase in absorbance at 412 nm for the first 30 seconds after mixing. KM and kcat values were calculated using EnzFitter software when plotting substrate concentration versus initial hydrolysis velocity.
CT conjugate kinetics were examined at a variety of temperatures (2.5° C., 7° C., 16.5° C., 24.5° C., 33° C., and 37.5° C.) to determine the effect of polymer UCST and LCST phase transitions and molecular weight on enzyme kinetics (see FIGS. 11(a)-(c) and Table 16 below).

For “α-Chymotrypsin (CT) from bovine pancreas (type II) [Native CT]”, the kcat/KM (Suc-AAPF-pNA [1]; pH 5.0, 25° C.) was 16000 M⁻¹ s⁻¹, the kcat/KM (Suc-AAPF-pNA [1]; pH 6.0, 25° C.) was 86000 M⁻¹ s⁻¹ and the kcat/KM (Suc-AAPF-pNA [1]; pH 7.0, 25° C.) was 285000 M⁻¹ s⁻¹. It also gave a kcat/KM (Suc-AAPF-pNA [1]; pH 8.0, 25° C.) of 387000 M⁻¹ s⁻¹, a kcat/KM (Suc-AAPF-pNA [1]; pH 9.0, 25° C.) of 272000 M⁻¹ s⁻¹ and a kcat/KM (Suc-AAPF-pNA [1]; pH 10.0, 25° C.) of 109000 M⁻¹ s⁻¹. The kcat/Km (Suc-AAPF-pNA [2]; pH 5.0, 100 mM sodium phosphate) was 11000 M⁻¹ s⁻¹, the kcat/Km (Suc-AAPF-pNA [2]; pH 6.0, 100 mM sodium phosphate) was 64000 M⁻¹ s⁻¹ and the kcat/Km (Suc-AAPF-pNA [2]; pH 7.0, 100 mM sodium phosphate) was 256000 M⁻¹ s⁻¹. It also gave a kcat/Km (Suc-AAPF-pNA [2]; pH 8.0, 100 mM sodium phosphate) of 483000 M⁻¹ s⁻¹, a kcat/Km (Suc-AAPF-pNA [2]; pH 9.0, 100 mM sodium phosphate) of 284000 M⁻¹ s⁻¹ and a kcat/Km (Suc-AAPF-pNA [2]; pH 10.0, 100 mM sodium phosphate) of 107000 M⁻¹ s⁻¹. It also gave a kcat/KM (NS-AAPF-pNA; 2.5° C.) of 330000 ± 60000 M⁻¹ s⁻¹, a kcat/KM (NS-AAPF-pNA; 2.5° C., listed as native chymotrypsin) of 330000 ± 60000 M⁻¹ s⁻¹ and a kcat/KM (NS-AAPF-pNA; 7° C.) of 340000 ± 90000 M⁻¹ s⁻¹. The kcat/KM (NS-AAPF-pNA; 7° C., listed as native chymotrypsin) was 340000 ± 90000 M⁻¹ s⁻¹, the kcat/KM (NS-AAPF-pNA; 16.5° C.) was 430000 ± 100000 M⁻¹ s⁻¹ and the kcat/KM (NS-AAPF-pNA; 16.5° C., listed as native chymotrypsin) was 430000 ± 100000 M⁻¹ s⁻¹. It also gave a kcat/KM (NS-AAPF-pNA; 24.5° C.) of 500000 ± 100000 M⁻¹ s⁻¹, a kcat/KM (NS-AAPF-pNA; 24.5° C., listed as native chymotrypsin) of 500000 ± 100000 M⁻¹ s⁻¹ and a kcat/KM (NS-AAPF-pNA; 33° C.) of 640000 ± 80000 M⁻¹ s⁻¹. It also gave a kcat/KM (NS-AAPF-pNA; 37.5° C.) of 800000 ± 100000 M⁻¹ s⁻¹ and a kcat/KM (NS-AAPF-pNA; 37.5° C., listed as native chymotrypsin) of 800000 ± 100000 M⁻¹ s⁻¹.
